Test results as given in PubChem BioAssay AID2685 (National Center for Advancing Translational Sciences (NCATS), 2010).
The list shows a part of the results. The main result of the screen is listed elsewhere. These columns were measured beside it and carry no call. The list favours compounds with an active or inconclusive main result. Words in brackets tell the shape of the fitted curve; partial curves, single points and poor fits give uncertain potencies.

Experiment: qHTS Assay for Lipid Storage Modulators in Drosophila S3 Cells;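 for cell number change: cells counted by Cell Tracker Red CMTPX staining in the red channel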
Conditions: BODIPY lipid droplet fluorescence, 18-24 h; for cell number change: measured here: cell count max response, cells fed with added oleic acid
Procedure, shortened: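 Drosophila S3 cells got compounds at several concentrations plus oleic acid (400 uM solution). Laser-scanning cytometry with 488 nm excitation read lipid droplets at 500-530 nm and cells at 575-640 nm. Percent activity was relative to 20 uM Triacsin C.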

[1] = measured here: lipid fluorescence (Fed channel) AC50, cells fed with added oleic acid
[2] = measured here: cell number channel AC50, cells fed with added oleic acid

SMILES | cell number change | AC50 [1] | AC50 [2]
COc1ccc(-n2c(SCC(N)=O)nc3sc4c(c3c2=O)CCC4)cc1 | -7.95% | 461 nM [falling, full curve, poor fit] | –
CC(=O)Nc1ccc(SCC(=O)Nc2ccc(Cl)cn2)cc1 | 5.63% | – | –
CC1(C)Cc2c(sc3c2c(=N)n(Cc2ccco2)c(=O)n3Cc2ccccc2)CO1 | -25.1% | 2060 nM [rising, partial curve] | –
COc1cc(/C=N/n2c(=S)[nH]nc(C)c2=O)cc([N+](=O)[O-])c1O | -10% | 4110 nM [falling, partial curve, poor fit] | –
Cc1[nH]c2ccccc2c1C(=O)CSc1ccc(F)cc1 | 4.59% | 82 nM [rising, full curve, poor fit] | –
Cn1c(C(O)c2ccccc2F)nc(Cl)c1Cl (stereo not drawn) | 0.28% | – | –
N/C(Cc1cccs1)=N\OC(=O)COc1ccc(Br)cc1Cl | -26% | – | –
Cc1ccccc1-c1nnc(SCC(=O)Nc2cccc(C)c2C)o1 | – | 517 nM [rising, single point] | 6510 nM [rising, partial curve, poor fit]
Cc1c(C#N)c(NC(=O)CCl)n(Cc2cccs2)c1C | -14.2% | 103 nM [falling, full curve, poor fit] | –
CCCCCC(O)(c1ccc(OC)cc1)C(CN1CCOCC1)c1ccccc1 (stereo not drawn) | 72.2% | 29100 nM [falling, single point] | 20600 nM [rising, partial curve]
COC(=O)c1cn(C(=O)c2ccc(F)cc2)c2ccccc12 | -6.91% | 116 nM [falling, full curve, poor fit] | –
O=C(CC(Nc1ccccc1)c1ccccc1)C1CC1 (stereo not drawn) | 16.1% | 3660 nM [rising, full curve, poor fit] | –
CC1(C)CCc2c([nH]c3ccccc3c2=O)O1 | -69.1% | 184 nM [falling, full curve] | 103 nM [falling, full curve, poor fit]
Cc1ccc(-c2csc(NC(=O)CN3C(=O)CCC3=O)n2)cc1 | -20.2% | 1640 nM [falling, single point] | –
COc1ccc2c(c1OC)C(=O)N1c3ccccc3COC21 (stereo not drawn) | 1.35% | 2590 nM [rising, partial curve] | –
CCCNc1nc2c(c(=O)n(C)c(=O)n2C)n1CCc1ccccc1 | -23.5% | 29100 nM [falling, single point] | –
CCN(C(=O)COC(=O)C1CCN(S(=O)(=O)c2ccc3c(c2)OCCO3)CC1)C1CCS(=O)(=O)C1 (stereo not drawn) | – | 130 nM [rising, full curve, poor fit] | –
CCOC(=O)C1=C(C)NC(=O)C(C(N)=O)C1c1ccccc1 (stereo not drawn) | -0.626% | 1460 nM [falling, full curve, poor fit] | –
Cc1ccc(Oc2ncnc3sccc23)cc1 | -8.78% | 103 nM [falling, full curve, poor fit] | –
CCOc1ccc(Br)cc1S(=O)(=O)Nc1ccc(N2CCOCC2)cc1 | – | 1300 nM [rising, full curve] | 820 nM [rising, partial curve]

SMILES | cell number change | AC50 [1] | AC50 [2]
COc1ccc(CNC(=O)CSc2nc3ccc(N)cc3s2)cc1 | -7.71% | – | 731 nM [rising, partial curve, poor fit]
CC(=O)NC(Cc1ccccc1F)C(=O)NC1CCN(c2ncccc2[N+](=O)[O-])CC1 (stereo not drawn) | 15.8% | 14600 nM [rising, single point] | –
COC(CNC(=O)c1ccc2c(c1)nc(C)n2-c1cc(C)cc(C)c1)OC | 1.3% | 580 nM [falling, full curve] | –
O=C(/C=C/c1ccc(Cl)cc1)N1CCN(c2ccc(Cl)cc2[N+](=O)[O-])CC1 | 62.7% | – | 29100 nM [rising, single point]
Cc1nc2ccccc2c(=O)n1/N=C/c1cn(-c2ccccc2)nc1-c1cccs1 | 13.6% | 29100 nM [rising, partial curve] | –
O=C(c1ccc(NS(=O)(=O)c2ccccc2)cc1)N1CCCCCC1 | 12.4% | 29100 nM [falling, single point] | –
Cn1c(CCN2CCCCC2)nc2cc(NC(=O)NC3CCCCC3)ccc21 | 0.952% | – | –
O=C(COC(=O)/C=C/c1cccc(Cl)c1)NCCc1ccccc1 | 16.7% | 23100 nM [rising, single point] | –
Cc1cc2c(cc1C)N(CC(=O)N1CCCC1)C(=O)CC(c1ccccc1)=N2 | 83.9% | – | 7310 nM [rising, partial curve, poor fit]
COc1cc(NC(=O)CSc2nc(C)cc(C)n2)cc(OC)c1OC | 5.85% | 103 nM [falling, full curve, poor fit] | 103 nM [falling, full curve, poor fit]
Cc1cc(OC(C)C(=O)NCC2CCC(C(=O)O)CC2)c2c(C)c(Cc3ccccc3)c(=O)oc2c1 (stereo not drawn) | -13.3% | – | –
CCCCC(=O)NC(c1cccc([N+](=O)[O-])c1)c1c(OC(C)=O)ccc2ccccc12 (stereo not drawn) | -25.3% | 29100 nM [falling, single point] | –
Cc1nc(Nc2c(Cl)cccc2Cl)sc1C(=O)Nc1ccccc1 | -19.5% | 23100 nM [falling, single point] | –
COc1cccc(OCCn2cc(/C=N/NC(=O)c3ccncc3)c3ccccc32)c1 | -3.05% | 3660 nM [rising, single point] | –
COc1c(F)c(F)c(C(=O)Nc2ccc(N3CCN(Cc4ccccc4)CC3)cc2)c(F)c1F | 20.3% | – | –
CCc1ccccc1NC(=O)CN(C)C(=O)Cn1ncc(Cl)c(Cl)c1=O | -19.9% | 9200 nM [falling, partial curve] | –
COc1ccccc1C(C)NS(=O)(=O)c1ccc(Cl)nc1 (stereo not drawn) | 0.514% | 4610 nM [rising, single point] | –
CCOC(=O)c1cc(C#N)c(SCC(=O)OC)[nH]c1=O | -7.49% | 366 nM [falling, partial curve, poor fit] | –
CCc1nc(SCC(=O)Nc2ccccc2Cl)n[nH]1 | – | 16400 nM [falling, partial curve] | –

Whole records from above. Order of values: cell number change | AC50 [1] | AC50 [2]
CC(=O)NC(Cc1ccccc1F)C(=O)NC1CCN(c2ncccc2[N+](=O)[O-])CC1 (stereo not drawn) in the list: 15.8% | 14600 nM [rising, single point] | –
CCCCC(=O)NC(c1cccc([N+](=O)[O-])c1)c1c(OC(C)=O)ccc2ccccc12 (stereo not drawn) in the list: -25.3% | 29100 nM [falling, single point] | –
